Results as given in paper doi:10.1101/2025.07.12.664526 (bioRxiv, 2025).
These are yes or no findings as the source states them, for the method shown. Binding seen in cells or lysates may run through a third protein. Sequences can lack the tags named with a protein.

Molecular target: WalR D53A/T101A fused to SmBIT or LgBIT (split luciferase) (S. aureus ATCC29213) (UniProt Q7A8E1)
Assay: split reporter

B1: WalR D53A/T101A fused to SmBIT or LgBIT (split luciferase) (protein, UniProt Q7A8E1 1-233)
chain: MARKVVVVDDEKPIADILEFNLKKEGYDVYCAYDGNDAVDLIYEEEPDIVLLAIMLPGRDGMEVCREVRKKYEMPIIMLTAKDSEIDKVLGLELGADDYVAKPFSTRELIARVKANLRRHYSQPAQDTGNVTNEITIKDIVIYPDAYSIKKRGEDIELTHREFELFHYLSKHMGQVMTREHLLQTVWGYDYFGDVRTVDVTIRRLREKIEDDPSHPEYIVTRRGVGYFLQQHE
In the case of B1, the binding is reported as “no binding”.
